Laboratory results as given in publication PMC2734569, “Functional mapping of the fission yeast DNA polymerase δ B-subunit Cdc1 by site-directed and random pentapeptide insertion mutagenesis” (BMC Molecular Biology, 2009).
These are yes or no findings as the source states them, for the method shown. Tags and fused reporters may be left off the sequences shown.

Experiments:
Cdc1-A9 = molecular target: T1, Cdc1-A9 (Schizosaccharomyces pombe, UniProt P87324 1-462, Pro292Ala | Gly293Ala); experiment: two-hybrid; LexA-Cdc1 bait (pBTM116 or pBTM116BN) with Gal4-Pol3 prey and co-expressed c-myc-tagged Cdc27 (pAA-Cdc27) in S. cerevisiae CTY10-5d; ONPG liquid culture beta-galactosidase assay, mean of triplicates, as percent of wild-type Cdc1
T1 construct: Cdc1, S. pombe, double point mutant (A1 and A2 combined); source: yeast two-hybrid fusion, in S. cerevisiae CTY10-5d
T1 sequence (looked up): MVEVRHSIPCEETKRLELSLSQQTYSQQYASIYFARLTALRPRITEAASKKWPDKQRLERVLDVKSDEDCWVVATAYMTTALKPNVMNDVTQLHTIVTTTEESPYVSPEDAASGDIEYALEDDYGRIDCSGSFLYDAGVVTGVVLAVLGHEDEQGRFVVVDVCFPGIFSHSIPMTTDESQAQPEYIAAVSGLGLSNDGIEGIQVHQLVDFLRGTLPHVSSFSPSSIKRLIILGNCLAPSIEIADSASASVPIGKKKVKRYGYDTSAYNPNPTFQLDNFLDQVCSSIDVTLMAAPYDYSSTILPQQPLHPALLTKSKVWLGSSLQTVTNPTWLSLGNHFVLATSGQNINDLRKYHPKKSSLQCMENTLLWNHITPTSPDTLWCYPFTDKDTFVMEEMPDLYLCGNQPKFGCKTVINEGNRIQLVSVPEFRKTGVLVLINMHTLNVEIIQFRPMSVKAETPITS

Cdc1-J21 = molecular target: T2, Cdc1-J21 (Schizosaccharomyces pombe, UniProt P87324 1-462, Leu-GlyValProGlnLeu-Asp); experiment: as above
T2 construct: Cdc1, S. pombe, with a pentapeptide inserted after residue 275; source: yeast two-hybrid fusion, in S. cerevisiae CTY10-5d
T2 sequence (looked up): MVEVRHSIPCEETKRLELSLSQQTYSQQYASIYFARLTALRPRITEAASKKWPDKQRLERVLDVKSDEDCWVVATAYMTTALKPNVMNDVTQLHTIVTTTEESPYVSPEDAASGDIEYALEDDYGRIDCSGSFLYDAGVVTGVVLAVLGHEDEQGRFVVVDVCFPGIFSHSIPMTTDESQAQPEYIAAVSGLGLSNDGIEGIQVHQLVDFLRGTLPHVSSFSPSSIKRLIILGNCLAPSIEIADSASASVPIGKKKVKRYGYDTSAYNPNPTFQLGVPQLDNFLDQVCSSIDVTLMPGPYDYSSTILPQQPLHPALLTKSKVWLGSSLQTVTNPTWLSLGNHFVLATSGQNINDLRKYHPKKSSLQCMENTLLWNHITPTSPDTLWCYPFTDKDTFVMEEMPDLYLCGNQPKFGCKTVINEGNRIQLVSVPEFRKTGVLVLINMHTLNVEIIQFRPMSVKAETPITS

- binding (Cdc1-A9): no binding (tested: <1% of wild type)
B1: Pol3 (fission yeast DNA polymerase delta catalytic subunit) (natural protein, Schizosaccharomyces pombe, UniProt P30316 1-1086, looked up)
chain: MTDRSSNEGVVLNKENYPFPRRNGSIHGEITDVKRRRLSERNGYGDKKGSSSKEKTSSFEDELAEYASQLDQDEIKSSKDQQWQRPALPAINPEKDDIYFQQIDSEEFTEGSVPSIRLFGVTDNGNSILVHVVGFLPYFYVKAPVGFRPEMLERFTQDLDATCNGGVIDHCIIEMKENLYGFQGNEKSPFIKIFTTNPRILSRARNVFERGEFNFEELFPVGVGVTTFESNTQYLLRFMIDCDVVGMNWIHLPASKYQFRYQNRVSNCQIEAWINYKDLISLPAEGQWSKMAPLRIMSFDIECAGRKGVFPDPSIDPVIQIASIVTQYGDSTPFVRNVFCVDTCSQIVGTQVYEFQNQAEMLSSWSKFVRDVDPDVLIGYNICNFDIPYLLDRAKSLRIHNFPLLGRIHNFFSVAKETTFSSKAYGTRESKTTSIPGRLQLDMLQVMQRDFKLRSYSLNAVCSQFLGEQKEDVHYSIITDLQNGTADSRRRLAIYCLKDAYLPQRLMDKLMCFVNYTEMARVTGVPFNFLLARGQQIKVISQLFRKALQHDLVVPNIRVNGTDEQYEGATVIEPIKGYYDTPIATLDFSSLYPSIMQAHNLCYTTLLDSNTAELLKLKQDVDYSVTPNGDYFVKPHVRKGLLPIILADLLNARKKAKADLKKETDPFKKAVLDGRQLALKVSANSVYGFTGATNGRLPCLAISSSVTSYGRQMIEKTKDVVEKRYRIENGYSHDAVVIYGDTDSVMVKFGVKTLPEAMKLGEEAANYVSDQFPNPIKLEFEKVYFPYLLISKKRYAGLFWTRTDTYDKMDSKGIETVRRDNCPLVSYVIDTALRKMLIDQDVEGAQLFTKKVISDLLQNKIDMSQLVITKALSKTDYAAKMAHVELAERMRKRDAGSAPAIGDRVAYVIIKGAQGDQFYMRSEDPIYVLENNIPIDAKYYLENQLSKPLLRIFEPILGEKASSLLHGDHTRTISMAAPSVGGIMKFAVKVETCLGCKAPIKKGKTALCENCLNRSAELYQRQVAQVNDLEVRFARLWTQCQRCQGSMHQDVICTSRDCPIFYMRIAEHKKLQQSVDLLKRFDEMSW
notes: DNA polymerase delta catalytic subunit Pol3, S. pombe; prey plasmid named pACT-Pol3 in the results and pGAD2F-Pol3 in the methods; also called Gal4-Pol3; pACT-Pol3; source: yeast two-hybrid fusion, in S. cerevisiae CTY10-5d
- binding (Cdc1-J21): no binding (tested: <1% of wild type (Table 1))
